Experimental data reported in PMC12552968, “The RING-finger domain of Arabidopsis RMR functions as an E3 ligase essential for post-Golgi trafficking” (The Journal of Biological Chemistry, 2025).
These are yes or no findings as the source states them, for the method shown. Tags and fused reporters may be left off the sequences shown.

Chains of the proteins cited; added tags and fusions are not shown.
UniProt Q9FKT3: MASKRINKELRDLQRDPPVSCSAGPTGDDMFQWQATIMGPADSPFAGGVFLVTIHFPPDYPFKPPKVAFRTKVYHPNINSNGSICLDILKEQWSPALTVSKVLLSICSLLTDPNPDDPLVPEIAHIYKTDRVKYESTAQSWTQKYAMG

Target: T1, I234Y variant of GST-AtRMR1-RING (Arabidopsis) (UniProt Q9M622)
T1 sequence: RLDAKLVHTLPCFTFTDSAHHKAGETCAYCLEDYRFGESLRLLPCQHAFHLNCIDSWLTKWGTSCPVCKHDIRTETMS
Experiment: pull-down; AtUbc30 (50 to 60 μM) with equimolar GST, wildtype or I234Y GST-AtRMR1-RING in the presence of GSTrap Sepharose; 30 mM Tris pH 7.5, 150 mM NaCl, 2 mM DTT; 4 h at 4 °C; eluted with 20 mM reduced glutathione; 15% SDS-PAGE, Coomassie blue; both purified

binding: no binding (tested: 50 μM)
Substance: Arabidopsis E2 ubiquitin-conjugating enzyme AtUbc30 (from UniProt Q9FKT3 1-148)
